From US7230089
No constants are given. Whether binding was seen depends on the method and setting. Some binding calls cover weakened binding; strength is not graded here. Sequences can lack the tags named with a protein.

Amino acid sequences for entries named in this document (tags omitted). A change or cut given only in a name is not applied to a line headed by its entry.
UniProt P04386: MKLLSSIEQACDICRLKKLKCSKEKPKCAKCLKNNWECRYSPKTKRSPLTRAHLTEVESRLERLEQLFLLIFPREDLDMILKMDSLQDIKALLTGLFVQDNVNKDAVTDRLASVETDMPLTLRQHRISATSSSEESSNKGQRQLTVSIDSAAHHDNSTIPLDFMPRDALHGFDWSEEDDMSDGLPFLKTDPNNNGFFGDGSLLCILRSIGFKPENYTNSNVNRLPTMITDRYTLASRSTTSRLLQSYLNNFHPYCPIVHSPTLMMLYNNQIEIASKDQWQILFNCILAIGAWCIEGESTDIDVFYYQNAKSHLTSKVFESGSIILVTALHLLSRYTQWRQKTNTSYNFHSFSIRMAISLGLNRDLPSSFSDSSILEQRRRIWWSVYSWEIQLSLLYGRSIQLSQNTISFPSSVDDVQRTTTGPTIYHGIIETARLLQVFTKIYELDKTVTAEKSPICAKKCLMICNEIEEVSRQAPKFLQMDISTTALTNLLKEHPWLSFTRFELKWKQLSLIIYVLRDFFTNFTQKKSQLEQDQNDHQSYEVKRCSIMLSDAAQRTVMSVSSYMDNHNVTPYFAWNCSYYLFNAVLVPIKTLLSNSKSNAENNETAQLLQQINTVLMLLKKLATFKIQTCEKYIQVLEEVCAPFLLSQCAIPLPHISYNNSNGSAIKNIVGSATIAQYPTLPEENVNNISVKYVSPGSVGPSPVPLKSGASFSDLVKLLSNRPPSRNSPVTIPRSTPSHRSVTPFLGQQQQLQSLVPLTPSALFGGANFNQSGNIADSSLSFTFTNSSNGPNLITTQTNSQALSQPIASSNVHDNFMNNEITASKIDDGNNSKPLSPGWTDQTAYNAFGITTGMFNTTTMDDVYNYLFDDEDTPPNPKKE
UniProt P42752: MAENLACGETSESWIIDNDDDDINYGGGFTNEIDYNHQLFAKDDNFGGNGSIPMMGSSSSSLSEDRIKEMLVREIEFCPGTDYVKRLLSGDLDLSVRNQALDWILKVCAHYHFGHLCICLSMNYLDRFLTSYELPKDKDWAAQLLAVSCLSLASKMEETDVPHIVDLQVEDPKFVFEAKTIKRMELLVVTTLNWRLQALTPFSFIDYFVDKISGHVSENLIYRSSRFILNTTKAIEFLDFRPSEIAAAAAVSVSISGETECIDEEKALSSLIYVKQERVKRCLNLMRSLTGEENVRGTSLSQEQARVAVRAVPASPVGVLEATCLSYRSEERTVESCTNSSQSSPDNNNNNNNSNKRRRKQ

Target: Gal-4-CycD2At fusion protein (Arabidopsis thaliana D-type cyclin D2 fused to the GAL4 DNA binding domain; bait plasmid pGBT9cycD2At) (Arabidopsis thaliana) (UniProt P04386+P42752)
Experiment: yeast two-hybrid screen (growth on His- / 3-aminotriazole medium and beta-galactosidase activity), cyclin D2 as GAL4 DNA binding domain bait

B1: BRO1 (clone from the Arabidopsis thaliana cDNA / GAL4 activation domain fusion library, pACT BRO1) (protein, not shown: large carriers)
chain: MASKKARKPNRAEKKLTRSCFKKQVPQHNNINTSITLDQTSTSTIVSTCSSSSTTLSSPLDTIYSVPSPSPAAVLTSPGGCCTPKAKKSRIPEMLTCPPAPKKQRVSKNCVLRRRQIVFFAPPEIELFFVNAHDR
- binding: binds
